The values that follow come from PMC12670160, “A drug-repurposing screen of FDA- and EMA-approved drugs identifies two NF-κB inhibitors active against eumycetoma” (Journal of Antimicrobial Chemotherapy, 2025).

Where a name gives a salt, the structure may show the parent alone. Out of some 5,300 compounds screened, about 130 (2.5%) showed an effect of 50% or more. Some of the results follow. Numbered stars: 1 amine (or outer) side, 2 acyl side, 3 side chain; on linkers, the order of the positions; unused ones are H or OH. Square brackets hold non-standard residues; d marks the D form. Side chains are listed from the residue outwards. Peptide text beside a SMILES is read from it. * marks the point of attachment. Ethylenediamine = C(CN[*:2])N[*:1]; Hyp = O=C(O)[C@@H]1C[C@@H](O)CN1; Phg = N[C@H](C(=O)O)c1ccccc1; CO = O=C([*:1])[*:2]; Bn = c1ccc(C*)cc1

The test system of this test is M. mycetomatis strain mm55. The note with it: primary screen, metabolic activity vs growth control; 96 h, 2 µM; inhibitor.
Turning to `CCCCCCCCCCCCCCCc1cccc(OCC(=O)NCCO)c1` [ONC0003083, pdpea], the “% viability” value is listed as 82.41%. `O=C(Nc1ccccc1C(=O)NC1CCCCNC1=O)c1cc2ccccc2s1` (stereo not drawn) [ONC0000199, ana12]: the “% viability” value was 69.04%. Take `COc1cccc(C(=O)CCN[C@@H](C)[C@H](O)c2ccccc2)c1` [ONC0001994, oxyfedrine]: the “% viability” value is given as 84.7%. As to `CSc1nc2ccc3nc(NC(=O)C(c4ccccc4)c4ccccc4)sc3c2s1` [ONC0000063, gue1654], the “% viability” value is recorded as 103.5%.

In the case of `N#Cc1cc(NC(=O)C(=O)O)c(Cl)c(NC(=O)C(=O)O)c1` [ONC0002293, lodoxamide], the “% viability” value was 84.84%. As for `Cc1cccc(C)c1OCC(C)N` (stereo not drawn) [ONC0002391, mexiletine hydrochloride], the “% viability” value amounted to 87.09%.

On to `O=C(/C=C/c1ccc2c(c1)OCO2)N1CCCCC1` [ONC0002363, ilepcimide], for which the “% viability” value is given as 63.52%. Regarding `O=C(Nc1ccc(Oc2ccc(Cl)cn2)c(Cl)c1)c1ccccn1` [ONC0003686, vu0422288], the “% viability” value turned out to be 84%. As for `CC(=O)Oc1c(C)cc(OCC(O)CNC(C)C)c(C)c1C` (stereo not drawn) [ONC0003410, metipranolol], the “% viability” value is 54.1%.

As for `CCOc1cc(OCC)c(C(=O)CCC(=O)O)cc1OCC` [ONC0000289, trepibutone], the “% viability” value is 73.35%. Consider `COc1ccccc1N1CCN(CCCCN2C(=O)c3ccccc3C2=O)CC1` [ONC0001540, nan190], for which the “% viability” value stood at 85.08%.

With `CCOC(=O)Nc1ccc2c(c1)N(C(=O)CN(C)C)c1ccccc1CC2` [ONC0002826, tiracizine], the “% viability” value is reported as 78.27%.

As to `O=C(O)c1cc(O)c2c(Cl)cc(Cl)cc2n1` [ONC0001427, 57dichlorokynurenicacid], the “% viability” value amounted to 78.42%. In the case of `O=C(CCCCCCCC(=O)NCCO)NCCO` [ONC0000286, adelmidrol], the “% viability” value is 65.71%.

As for `CCOc1ccc(Nc2nc(-c3c(C)nc4ccccn34)cs2)cc1` [ONC0000824, jk184], the “% viability” value worked out at 102.1%. Consider `Cc1cc(I)ccc1Nc1c(C(=O)NOCC2CC2)cc(F)c(F)c1F` [ONC0003526, pd198306], for which the “% viability” value amounted to 112.8%. `Cc1cc(=O)[nH]c(=S)[nH]1` [ONC0000474, methylthiouracil]: the “% viability” value worked out at 91.87%. Next, `Cc1ccc(-c2nn(C(C)(C)CNC(=O)c3ncccc3C)c3ncnc(N)c23)cc1` [ONC0001927, wehi345 analog]: 93.39%; `COc1ccccc1OCC(O)CO` (stereo not drawn) [ONC0000374, guaifenesin]: 64.47%. Consider `C=C1/C(=C/C=C2\CCC[C@]3(C)[C@@H]([C@H](C)/C=C/[C@@H](C)C(C)C)CC[C@@H]23)C[C@@H](O)C[C@@H]1O` [ONC0004870, doxercalciferol hectorol], for which the “% viability” value was 79.32%. Take `C[C@@H]1O[C@@H](Oc2c(-c3cc(O)c(O)c(O)c3)oc3cc(O)cc(O)c3c2=O)[C@@H](O)[C@H](O)[C@H]1O` [ONC0004958, myricitrin myricitrine]: the “% viability” value amounted to 68.08%.

As for `CC[C@]1(O)C[C@H]2CN(CCc3c([nH]c4ccccc34)[C@@](C(=O)OC)(c3cc4c(cc3OC)N(C=O)[C@H]3[C@@](O)(C(=O)OC)[C@H](OC(C)=O)[C@]5(CC)C=CCN6CC[C@]43[C@@H]65)C2)C1` [ONC0002022, vincristine sulfate], the “% viability” value was found to be 106.7%. For the compound `NC[C@@H]1O[C@H](O[C@H]2[C@@H](O)[C@H](O[C@@H]3[C@@H](O)[C@H](N)C[C@H](N)[C@H]3O[C@H]3O[C@H](CO)[C@@H](O)[C@H](O)[C@H]3N)O[C@@H]2CO)[C@H](N)[C@@H](O)[C@@H]1O` [ONC0005310, paromomycin], the “% viability” value was 134.8%. `Nc1nc(CC(=O)Nc2ccc(CCNC[C@H](O)c3ccccc3)cc2)cs1` [ONC0004810, mirabegron ym178]: the “% viability” value was 76.32%.

As for `NC(=O)c1ccc2[nH]ccc2c1` [ONC0002948, sd169], the “% viability” value is given as 85.1%.

As to `CC(C)(C)Nc1nc(Nc2ccc(C(N)=O)cc2)cc(N)c1C#N` [ONC0002695, tcmps112], the “% viability” value is listed as 55.9%. `Brc1ccc(NC2C3CC4CC(C3)CC2C4)cc1` (stereo not drawn) [ONC0003854, bromantan]: the “% viability” value is listed as 62.63%. Take `Cc1c(N(C)C)c(=O)n(-c2ccccc2)n1C` [ONC0003206, aminopyrine]: the “% viability” value amounted to 63.7%. For `Oc1c(Cl)cc(Cl)c(Cl)c1Cc1c(O)c(Cl)cc(Cl)c1Cl` [ONC0000366, hexachlorophene], the “% viability” value came out at 158.2%. With `Cc1oc(=O)oc1COC(=O)C1=C([C@H]2CCCO2)S[C@@H]2[C@@H]([C@@H](C)O)C(=O)N12` [ONC0001072, faropenem daloxate], the “% viability” value was 41.67%.

`CCOc1cc2ncc(C#N)c(Nc3ccc(F)c(Cl)c3)c2cc1NC(=O)/C=C/CN(C)C` [ONC0004888, pelitinib ekb569]: the “% viability” value came out at 142.6%.

With `Cc1cc(/C=C/C#N)cc(C)c1Nc1ccnc(Nc2ccc(C#N)cc2)n1` [ONC0005185, rilpivirine], the “% viability” value stood at 107.3%.

Regarding `CN(C)c1cc(NC(=O)CNC(C)(C)C)c(O)c2c1C[C@H]1C[C@H]3[C@H](N(C)C)C(=O)C(C(N)=O)C(=O)[C@@]3(O)C(=O)C1C2=O` (stereo partly drawn) [ONC0005493, tigecycline], the “% viability” value was 77.34%. On to `COc1cc2c(cc1O)C(CCc1ccc(Cl)cc1)N(C)CC2` (stereo not drawn) [ONC0000203, ro045595], for which the “% viability” value was found to be 65.42%. Consider `N#Cc1cnc2c(Cl)cc(NCc3cn(CCN4CCCCCC4)nn3)cc2c1Nc1ccc(F)c(Cl)c1` [ONC0000779, cot inhibitor1], for which the “% viability” value is reported as 49.03%. In the case of `Oc1ccc(/C=C/c2cc(O)cc(O)c2)cc1` [ONC0001122, resveratrol], the “% viability” value came to 51.21%.

In the case of `CCN(CC)Cc1ccc(C(=O)N(CCc2ccccc2OC)[C@@H]2CCNC2)cc1` [ONC0002565, pf429242], the “% viability” value came out at 67.81%. On to `CCOC(=O)C1=C(COCCN)NC(C)=C(C(=O)OC)C1c1ccccc1Cl` (stereo not drawn) [ONC0004005, amlodipine besylate], for which the “% viability” value came to 63.47%. With `NCCCC[C@@H]1NC(=O)[C@@H](Cc2c[nH]c3ccccc23)NC(=O)[C@H](c2ccccc2)NC(=O)[C@@H]2C[C@@H](OC(=O)NCCN)CN2C(=O)[C@H](Cc2ccccc2)NC(=O)[C@H](Cc2ccc(OCc3ccccc3)cc2)NC1=O` [ONC0002267, pasireotide ditrifluoroacetate] (cyclo([Hyp]([CO-Ethylenediamine])[Phg][dW]KY(Bn)F)), the “% viability” value was 70.05%.
